Laboratory results: PubChem BioAssay AID743121 (NCATS, 2013)

Aim: 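Genes whose silencing strengthens cell killing by camptothecin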 (primary screen)
Cells: MDA-MB-231 cells, a human breast cancer line
Reagent: single siRNA against human genes, 20 nM siRNA (0.8 pmol per well)
Timing: 120 h (drug added 48 h after transfection, read 72 h later)
Treatment: camptothecin 20 nM (about EC30) for 72 h; vehicle 0.1% DMSO in parallel plates
Detection: 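Cell viability by ATP luminescence (CellTiter-Glo) as % of non-targeting siRNA wells, and the log2 ratio of viability without drug over viability with camptothecin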
Reading the numbers: log2 vehicle/camptothecin viability: higher = stronger sensitisation to camptothecin
Call rule: 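Active genes have an RSA gene-level p-value below 0.001, computed from the ratios of their separate siRNAs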
In all, the deposit lists about 26,000 reagents; shown is an unselected part. In the full data, 167 (0.63%) were called active. 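Calls are per gene from RSA p-values that are not deposited; an individual active-marked siRNA can sensitise only weakly.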 Reagents against one gene are numbered here. Not all columns of the deposit are shown.

PRMT9 #1
- log2 vehicle/camptothecin viability: -0.0338
- outcome: inactive

PRMT9 #2
- log2 vehicle/camptothecin viability: -0.141
- outcome: inactive

PRMT9 #3
- log2 vehicle/camptothecin viability: -0.33
- outcome: inactive

PRMT9 #4
- log2 vehicle/camptothecin viability: -0.215
- outcome: inactive

MARCHF1 #1
- log2 vehicle/camptothecin viability: 0.216
- outcome: inactive

MARCHF1 #2
- log2 vehicle/camptothecin viability: -0.105
- outcome: inactive

MARCHF1 #3
- log2 vehicle/camptothecin viability: -0.131
- outcome: inactive

MARCHF1 #4
- log2 vehicle/camptothecin viability: -0.0759
- outcome: inactive

ADAMTS17 #1
- log2 vehicle/camptothecin viability: -0.502
- outcome: inactive

ADAMTS17 #2
- log2 vehicle/camptothecin viability: -0.377
- outcome: inactive

ADAMTS17 #3
- log2 vehicle/camptothecin viability: 0.0584
- outcome: inactive

ADAMTS17 #4
- log2 vehicle/camptothecin viability: -0.037
- outcome: inactive

GABRA3 #1
- log2 vehicle/camptothecin viability: -0.276
- outcome: inactive

GABRA3 #2
- log2 vehicle/camptothecin viability: 0.11
- outcome: inactive

GABRA3 #3
- log2 vehicle/camptothecin viability: 0.232
- outcome: inactive

LIN7A #1
- log2 vehicle/camptothecin viability: 1.01
- outcome: inactive

LIN7A #2
- log2 vehicle/camptothecin viability: -0.0161
- outcome: inactive

LIN7A #3
- log2 vehicle/camptothecin viability: -0.0264
- outcome: inactive

LIN7A #4
- log2 vehicle/camptothecin viability: -0.107
- outcome: inactive

GRIA2 #1
- log2 vehicle/camptothecin viability: 0.337
- outcome: inactive

GRIA2 #2
- log2 vehicle/camptothecin viability: 0.000328
- outcome: inactive

GRIA2 #3
- log2 vehicle/camptothecin viability: 0.293
- outcome: inactive

GRIA2 #4
- log2 vehicle/camptothecin viability: -0.068
- outcome: inactive

COPS2 #1
- log2 vehicle/camptothecin viability: 0.0728
- outcome: inactive

COPS2 #2
- log2 vehicle/camptothecin viability: 0.965
- outcome: inactive

COPS2 #3
- log2 vehicle/camptothecin viability: 0.0837
- outcome: inactive

COPS2 #4
- log2 vehicle/camptothecin viability: 0.761
- outcome: inactive

Looked up above.
Value for MARCHF1 #4 under “log2 vehicle/camptothecin viability”: -0.0759
LIN7A #1, outcome → inactive
